The text below walks through data of patent US20240374736A1, “INHALED LIQUID FOR THE TREATMENT OF RESPIRATORY INFECTIONS IN HUMANS CAUSED BY PATHOGENS RESISTANT TO ANTIBIOTICS” (priority 2023, published 2024).

One series relates to Histoplasma capsulatum. The series is classed as cell-based.

On to `C=CCc1ccc(O)c(OC)c1.CCN(CC)CC(=O)Nc1c(C)cccc1C` [novel compound, N-[N′-(carboxymethylenyl-2,6-dimethyl-aniline)-N,N-diethylammonium]-[2′-methoxy-4′-(2′-propenyl)]-phenolate], for which the “toxicity in the applied doses” value in the series on rats (orally (p.o.)) and in the series on mice (orally (p.o.)) was “low toxic” throughout. Besides, the “oral LD50” value with rats (p.o.) is listed as “over 2,250 μL/kg”; with mice (p.o.), “over 2,000 μL/kg”. Besides, in the series with rats (p.o., doses up to 2,250 μL/kg), the lethality result is on record as “No rats ended lethally”. In the series with Histoplasma capsulatum, the “R (evaluation of the results by zone diameter)” value was “ES (key: 0 mm-4 mm: resistant: R; 5 mm-9 mm: moderately sensitive: MS; 10 mm-15 mm: sensitive: S; 16 mm-20 mm: very sensitive: VS; 21 mm and more: extremely sensitive: ES)”.
